The values below come from paper PMC9404835.

The chains behind the UniProt entries cited, without tags or fusion partners. Where a name states a change or a piece, a line headed by the entry shows the natural chain unless it says otherwise.
UniProt P32929: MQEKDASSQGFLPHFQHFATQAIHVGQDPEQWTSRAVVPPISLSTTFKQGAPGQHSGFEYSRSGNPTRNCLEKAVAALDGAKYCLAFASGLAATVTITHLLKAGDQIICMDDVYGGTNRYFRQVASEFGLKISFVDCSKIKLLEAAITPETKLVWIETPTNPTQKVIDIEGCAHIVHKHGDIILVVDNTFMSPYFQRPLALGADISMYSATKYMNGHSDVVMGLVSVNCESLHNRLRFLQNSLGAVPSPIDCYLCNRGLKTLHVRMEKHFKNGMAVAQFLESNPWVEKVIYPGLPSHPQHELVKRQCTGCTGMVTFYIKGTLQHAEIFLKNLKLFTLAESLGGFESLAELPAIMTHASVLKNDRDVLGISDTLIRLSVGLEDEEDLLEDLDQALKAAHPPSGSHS
UniProt P42858: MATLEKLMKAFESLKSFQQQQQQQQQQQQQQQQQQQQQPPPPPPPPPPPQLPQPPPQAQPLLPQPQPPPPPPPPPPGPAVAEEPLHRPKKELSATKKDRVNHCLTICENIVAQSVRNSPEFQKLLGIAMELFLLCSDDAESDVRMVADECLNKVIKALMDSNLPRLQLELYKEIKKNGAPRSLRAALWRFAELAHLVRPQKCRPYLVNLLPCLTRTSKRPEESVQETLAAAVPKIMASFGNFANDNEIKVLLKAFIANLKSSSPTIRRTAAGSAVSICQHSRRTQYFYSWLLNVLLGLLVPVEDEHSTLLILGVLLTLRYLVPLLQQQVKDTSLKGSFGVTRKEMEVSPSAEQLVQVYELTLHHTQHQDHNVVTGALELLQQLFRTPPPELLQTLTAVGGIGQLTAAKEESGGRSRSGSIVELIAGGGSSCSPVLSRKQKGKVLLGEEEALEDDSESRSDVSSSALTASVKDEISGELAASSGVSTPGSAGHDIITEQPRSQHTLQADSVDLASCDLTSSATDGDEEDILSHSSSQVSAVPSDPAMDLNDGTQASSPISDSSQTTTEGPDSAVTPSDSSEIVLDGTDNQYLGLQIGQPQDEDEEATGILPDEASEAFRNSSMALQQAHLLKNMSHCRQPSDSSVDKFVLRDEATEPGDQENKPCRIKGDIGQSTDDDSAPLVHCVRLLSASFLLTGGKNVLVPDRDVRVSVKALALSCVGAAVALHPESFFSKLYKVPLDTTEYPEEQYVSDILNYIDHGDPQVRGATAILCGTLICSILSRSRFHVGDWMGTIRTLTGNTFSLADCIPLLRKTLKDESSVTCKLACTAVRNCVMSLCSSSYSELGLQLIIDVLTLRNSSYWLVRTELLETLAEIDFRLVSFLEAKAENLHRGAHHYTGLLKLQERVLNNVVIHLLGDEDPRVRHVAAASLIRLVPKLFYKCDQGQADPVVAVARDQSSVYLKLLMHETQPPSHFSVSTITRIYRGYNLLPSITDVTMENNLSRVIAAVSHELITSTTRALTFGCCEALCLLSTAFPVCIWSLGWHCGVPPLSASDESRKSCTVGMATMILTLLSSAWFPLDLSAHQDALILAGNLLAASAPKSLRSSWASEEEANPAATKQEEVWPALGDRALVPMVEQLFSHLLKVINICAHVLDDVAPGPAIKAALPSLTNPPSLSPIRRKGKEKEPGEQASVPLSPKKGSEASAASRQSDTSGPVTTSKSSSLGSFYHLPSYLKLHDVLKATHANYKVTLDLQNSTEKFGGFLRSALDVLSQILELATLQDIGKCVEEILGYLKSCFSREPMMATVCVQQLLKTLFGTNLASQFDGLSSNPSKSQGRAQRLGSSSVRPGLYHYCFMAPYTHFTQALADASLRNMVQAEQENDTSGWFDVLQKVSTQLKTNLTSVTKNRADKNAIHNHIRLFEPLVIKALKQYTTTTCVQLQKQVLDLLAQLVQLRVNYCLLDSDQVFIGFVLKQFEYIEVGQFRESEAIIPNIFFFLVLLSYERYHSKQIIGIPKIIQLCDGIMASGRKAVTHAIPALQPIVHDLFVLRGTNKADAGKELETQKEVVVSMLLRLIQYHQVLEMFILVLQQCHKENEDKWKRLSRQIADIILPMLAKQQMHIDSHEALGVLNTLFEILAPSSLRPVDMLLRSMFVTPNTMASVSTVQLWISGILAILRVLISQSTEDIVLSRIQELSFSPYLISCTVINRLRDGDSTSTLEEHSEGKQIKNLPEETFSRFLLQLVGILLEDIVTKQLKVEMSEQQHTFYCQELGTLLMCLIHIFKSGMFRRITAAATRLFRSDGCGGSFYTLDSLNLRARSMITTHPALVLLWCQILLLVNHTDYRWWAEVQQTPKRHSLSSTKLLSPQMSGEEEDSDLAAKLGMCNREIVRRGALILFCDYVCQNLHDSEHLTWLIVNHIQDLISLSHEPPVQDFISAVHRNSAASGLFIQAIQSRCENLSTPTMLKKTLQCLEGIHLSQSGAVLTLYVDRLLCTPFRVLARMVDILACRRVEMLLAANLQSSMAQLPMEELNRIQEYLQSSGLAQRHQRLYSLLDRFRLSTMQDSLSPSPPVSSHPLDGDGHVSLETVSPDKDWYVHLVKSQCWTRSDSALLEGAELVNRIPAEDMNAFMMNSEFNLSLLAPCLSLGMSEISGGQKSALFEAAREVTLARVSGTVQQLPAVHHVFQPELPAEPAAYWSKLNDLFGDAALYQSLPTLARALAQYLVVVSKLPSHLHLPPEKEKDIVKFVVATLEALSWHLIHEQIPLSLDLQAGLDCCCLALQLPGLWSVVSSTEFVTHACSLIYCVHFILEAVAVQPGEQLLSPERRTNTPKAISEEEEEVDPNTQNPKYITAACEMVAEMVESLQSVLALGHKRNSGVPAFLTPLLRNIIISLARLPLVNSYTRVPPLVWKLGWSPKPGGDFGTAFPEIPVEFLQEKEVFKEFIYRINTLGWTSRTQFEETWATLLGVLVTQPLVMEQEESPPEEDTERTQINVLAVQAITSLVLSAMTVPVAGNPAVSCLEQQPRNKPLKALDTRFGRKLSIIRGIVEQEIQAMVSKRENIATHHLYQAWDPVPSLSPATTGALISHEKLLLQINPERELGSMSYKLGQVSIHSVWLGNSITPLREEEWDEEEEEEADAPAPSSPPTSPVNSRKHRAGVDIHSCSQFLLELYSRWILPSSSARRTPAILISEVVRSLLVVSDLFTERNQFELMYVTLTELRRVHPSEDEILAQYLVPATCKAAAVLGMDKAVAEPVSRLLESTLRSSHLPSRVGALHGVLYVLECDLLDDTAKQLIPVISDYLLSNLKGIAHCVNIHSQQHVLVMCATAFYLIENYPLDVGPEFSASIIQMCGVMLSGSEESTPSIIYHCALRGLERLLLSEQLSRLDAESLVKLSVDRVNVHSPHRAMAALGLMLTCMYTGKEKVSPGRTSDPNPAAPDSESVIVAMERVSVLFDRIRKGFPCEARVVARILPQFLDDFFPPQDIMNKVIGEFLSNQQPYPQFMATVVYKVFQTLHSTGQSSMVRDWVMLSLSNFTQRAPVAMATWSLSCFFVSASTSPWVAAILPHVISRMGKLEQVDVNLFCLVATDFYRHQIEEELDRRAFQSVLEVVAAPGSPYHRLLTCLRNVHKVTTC

The assay addresses myc-tagged cystathionine γ-lyase (CSE) (UniProt P32929). The assay can be described thus: co-IP; HEK293 cells co-transfected with myc-CSE and HD17 or HD75 for 24 h; immunoprecipitation with anti-myc antibody (legend; the methods name anti-CSE antibodies), Protein A/G agarose, 4 °C; 50 mM Tris-HCl pH 7.4, 150 mM NaCl, 1% Triton X-100, 1 mM EDTA, 10% glycerol; Western blot. In general terms: In western blotting, separated proteins are transferred to a membrane and probed.

These are yes or no findings as the source states them, for the method shown. Binding seen in cells or lysates may run through a third protein. Binding calls can cover weak binding; strength is not graded here.

As to “full-length mutant huntingtin (HD75) (from UniProt P42858)”, the binding result is “binds”.
